These are yes or no findings as the source states them, for the method shown. Binding seen in cells or lysates may run through a third protein. Some results given as binding are weak or reduced against the parent protein; the word gives no strength.

The chains behind the UniProt entries cited, without tags or fusion partners.
UniProt P22736: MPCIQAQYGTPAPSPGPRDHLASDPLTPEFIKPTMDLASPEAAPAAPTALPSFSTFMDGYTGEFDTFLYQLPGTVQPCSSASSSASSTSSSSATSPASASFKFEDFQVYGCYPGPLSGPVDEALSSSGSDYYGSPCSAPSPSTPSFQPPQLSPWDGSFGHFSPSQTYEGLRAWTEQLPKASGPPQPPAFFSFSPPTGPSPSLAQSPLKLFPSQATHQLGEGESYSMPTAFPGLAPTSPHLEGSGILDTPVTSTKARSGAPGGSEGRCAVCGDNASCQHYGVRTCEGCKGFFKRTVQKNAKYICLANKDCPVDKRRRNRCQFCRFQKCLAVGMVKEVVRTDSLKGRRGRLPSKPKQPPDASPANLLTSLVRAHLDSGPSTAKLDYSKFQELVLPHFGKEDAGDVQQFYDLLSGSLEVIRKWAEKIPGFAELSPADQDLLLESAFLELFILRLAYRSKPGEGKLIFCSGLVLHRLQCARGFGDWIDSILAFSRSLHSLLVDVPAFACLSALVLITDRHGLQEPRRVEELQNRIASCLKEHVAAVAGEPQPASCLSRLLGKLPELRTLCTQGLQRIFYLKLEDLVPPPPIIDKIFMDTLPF
UniProt Q13009: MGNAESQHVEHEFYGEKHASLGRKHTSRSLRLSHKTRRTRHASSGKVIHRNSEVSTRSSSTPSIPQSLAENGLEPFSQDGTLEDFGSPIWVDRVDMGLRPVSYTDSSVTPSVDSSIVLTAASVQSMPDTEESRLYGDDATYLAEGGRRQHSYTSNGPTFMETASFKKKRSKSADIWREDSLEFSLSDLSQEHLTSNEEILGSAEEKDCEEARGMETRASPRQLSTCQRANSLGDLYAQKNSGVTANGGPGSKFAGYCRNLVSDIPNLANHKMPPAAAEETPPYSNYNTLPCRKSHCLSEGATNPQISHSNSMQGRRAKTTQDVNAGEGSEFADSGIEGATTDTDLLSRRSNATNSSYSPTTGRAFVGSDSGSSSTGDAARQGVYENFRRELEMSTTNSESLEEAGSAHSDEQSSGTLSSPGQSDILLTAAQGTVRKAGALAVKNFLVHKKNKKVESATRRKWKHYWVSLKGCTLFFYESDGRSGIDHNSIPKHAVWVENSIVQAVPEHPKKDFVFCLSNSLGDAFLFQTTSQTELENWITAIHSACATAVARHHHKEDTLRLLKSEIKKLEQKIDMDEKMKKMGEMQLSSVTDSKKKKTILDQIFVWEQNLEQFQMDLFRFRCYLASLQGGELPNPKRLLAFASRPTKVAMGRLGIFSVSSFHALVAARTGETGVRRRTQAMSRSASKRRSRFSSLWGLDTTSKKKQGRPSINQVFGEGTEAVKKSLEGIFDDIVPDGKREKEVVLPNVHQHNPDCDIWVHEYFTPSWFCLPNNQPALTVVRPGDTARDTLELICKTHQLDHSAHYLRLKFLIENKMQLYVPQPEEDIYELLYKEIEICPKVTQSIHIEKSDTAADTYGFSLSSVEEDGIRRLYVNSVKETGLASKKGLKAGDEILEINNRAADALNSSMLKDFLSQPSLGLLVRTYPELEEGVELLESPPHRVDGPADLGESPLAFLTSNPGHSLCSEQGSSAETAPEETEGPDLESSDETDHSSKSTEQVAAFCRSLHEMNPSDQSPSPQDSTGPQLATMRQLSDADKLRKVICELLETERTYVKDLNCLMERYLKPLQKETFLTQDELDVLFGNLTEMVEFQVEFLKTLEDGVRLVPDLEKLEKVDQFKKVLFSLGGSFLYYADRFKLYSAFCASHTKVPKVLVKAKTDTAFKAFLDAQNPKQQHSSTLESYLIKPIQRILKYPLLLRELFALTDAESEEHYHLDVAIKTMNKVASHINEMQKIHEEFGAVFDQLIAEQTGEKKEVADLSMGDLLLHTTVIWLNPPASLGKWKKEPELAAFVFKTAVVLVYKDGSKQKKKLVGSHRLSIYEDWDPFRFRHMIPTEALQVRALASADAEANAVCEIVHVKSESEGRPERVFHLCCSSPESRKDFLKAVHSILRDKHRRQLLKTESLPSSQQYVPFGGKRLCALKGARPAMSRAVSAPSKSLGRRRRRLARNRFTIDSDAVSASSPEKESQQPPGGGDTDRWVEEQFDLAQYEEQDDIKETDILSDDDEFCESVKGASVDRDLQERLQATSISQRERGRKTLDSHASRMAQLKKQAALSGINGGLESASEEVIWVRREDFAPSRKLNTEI

Assay [1] deals with Myc-tagged Nur77 (doxycycline-inducible, H446 cells) (UniProt P22736). Nature of the assay: co-IP; nuclear fractions of H446 cells co-expressing doxycycline-induced Myc-Nur77 and exogenous TIAM1; Nur77 precipitated with a Myc-tag nanobody (Myc-Trap agarose); blot for TIAM1.
In assay [2] the target is Myc-tagged full-length Nur77 (HEK293T cells) (UniProt P22736). Nature of the assay: co-IP; HEK293T cells transfected for 48 h, whole cell lysate (IP lysis buffer, 1% Triton X-100, 150 mM NaCl), Myc-agarose beads 1 h at 4°C, five washes, immunoblot; for NLS-TIAM1 cells treated with DMSO or 50 uM NSC-23766 overnight.
The target is the same in assay [3]. Nature of the assay: co-IP; nuclear extracts of HEK293T cells expressing NLS-TIAM1-WT or NLS-TIAM1-4A together with Myc-Nur77; Myc-Nur77 precipitated; immunoblot.

As to “Exogenous full-length TIAM1 (H446 cells) (from UniProt Q13009 1-1591)”, the binding result in assay [1] is given as “binds”. Turning to “TIAM1 tagged with a nuclear localization sequence, wild type (from UniProt Q13009 1-1591)”, the binding entry in assay [2] and in assay [3] was “binds” in each case.

For the origin of these results see PMC8595642.
